Data reported in US20030180888A1.
No constants are given. Whether binding was seen depends on the method and setting. Some binding calls cover weakened binding; strength is not graded here. Tags and fused reporters may be left off the sequences shown.

Sequences of proteins named here, by UniProt entry; tags and fusion partners are left off. A change or cut given only in a name is not applied to a line headed by its entry.
UniProt P04386: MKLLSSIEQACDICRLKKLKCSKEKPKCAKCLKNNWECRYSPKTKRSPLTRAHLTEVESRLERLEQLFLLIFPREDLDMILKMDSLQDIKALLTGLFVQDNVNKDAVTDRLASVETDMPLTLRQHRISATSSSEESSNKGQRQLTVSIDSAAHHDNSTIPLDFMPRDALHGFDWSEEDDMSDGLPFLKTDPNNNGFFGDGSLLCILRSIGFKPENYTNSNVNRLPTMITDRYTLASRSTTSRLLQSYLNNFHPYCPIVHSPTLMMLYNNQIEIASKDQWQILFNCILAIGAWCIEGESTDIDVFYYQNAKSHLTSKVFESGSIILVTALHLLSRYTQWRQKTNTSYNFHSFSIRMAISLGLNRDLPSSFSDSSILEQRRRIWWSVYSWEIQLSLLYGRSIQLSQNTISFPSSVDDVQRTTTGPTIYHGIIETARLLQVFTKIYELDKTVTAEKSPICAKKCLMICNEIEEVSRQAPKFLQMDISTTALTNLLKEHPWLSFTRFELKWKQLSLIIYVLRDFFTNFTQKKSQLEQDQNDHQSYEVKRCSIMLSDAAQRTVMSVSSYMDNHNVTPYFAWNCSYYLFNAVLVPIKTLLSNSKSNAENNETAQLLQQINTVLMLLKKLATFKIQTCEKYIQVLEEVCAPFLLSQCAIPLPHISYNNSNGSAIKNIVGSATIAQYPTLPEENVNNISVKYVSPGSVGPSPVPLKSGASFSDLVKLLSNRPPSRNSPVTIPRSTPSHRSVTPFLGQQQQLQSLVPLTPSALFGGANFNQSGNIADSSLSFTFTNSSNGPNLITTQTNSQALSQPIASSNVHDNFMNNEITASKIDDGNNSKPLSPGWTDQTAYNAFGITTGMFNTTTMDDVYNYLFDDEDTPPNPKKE

Target: T1, Gal-4 activation domain-CD150 fusion construct (SLAM), without c-fyn (UniProt Q13291)
T1 sequence (looked up): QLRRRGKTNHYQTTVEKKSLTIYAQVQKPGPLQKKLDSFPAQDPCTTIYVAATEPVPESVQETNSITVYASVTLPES
Experiment: classical yeast two-hybrid, beta-galactosidase reporter, no c-fyn

binding: binds
Substance: Gal-4 binding domain-SAP fusion (human SLAM associated protein, SAP) (from UniProt P04386 1-147; O60880 1-128)
